Data on 1 compound can be found in PMC11738990.

The source holds more than one record for some entries. The other results are left out here. An entry can have further records. Values given together do not match, cause unknown; some may be repeats, others may stem from another dose, organism or construct than stated.

This assay has as its system primary lung fibroblasts from healthy donors. In words: FMT by α-SMA, high-content analysis.

Usually IC50 stands for the point on the concentration scale where inhibition reaches its midpoint. A low value points to higher potency.

Consider `CC(C)n1cnc(-c2ccc(F)cc2)c1-c1ncc(C(=O)Nc2ccc(N3CCN(C)CC3)cc2)[nH]1`, for which the IC50 is 200 nM and 320 nM.
